Reference: the supplement of paper PMC10849652
The list shows a part of the results.

Amino acid sequences for entries named in this document (tags omitted). A change or cut given only in a name is not applied to a line headed by its entry.
UniProt O75175, whole entry, looked up: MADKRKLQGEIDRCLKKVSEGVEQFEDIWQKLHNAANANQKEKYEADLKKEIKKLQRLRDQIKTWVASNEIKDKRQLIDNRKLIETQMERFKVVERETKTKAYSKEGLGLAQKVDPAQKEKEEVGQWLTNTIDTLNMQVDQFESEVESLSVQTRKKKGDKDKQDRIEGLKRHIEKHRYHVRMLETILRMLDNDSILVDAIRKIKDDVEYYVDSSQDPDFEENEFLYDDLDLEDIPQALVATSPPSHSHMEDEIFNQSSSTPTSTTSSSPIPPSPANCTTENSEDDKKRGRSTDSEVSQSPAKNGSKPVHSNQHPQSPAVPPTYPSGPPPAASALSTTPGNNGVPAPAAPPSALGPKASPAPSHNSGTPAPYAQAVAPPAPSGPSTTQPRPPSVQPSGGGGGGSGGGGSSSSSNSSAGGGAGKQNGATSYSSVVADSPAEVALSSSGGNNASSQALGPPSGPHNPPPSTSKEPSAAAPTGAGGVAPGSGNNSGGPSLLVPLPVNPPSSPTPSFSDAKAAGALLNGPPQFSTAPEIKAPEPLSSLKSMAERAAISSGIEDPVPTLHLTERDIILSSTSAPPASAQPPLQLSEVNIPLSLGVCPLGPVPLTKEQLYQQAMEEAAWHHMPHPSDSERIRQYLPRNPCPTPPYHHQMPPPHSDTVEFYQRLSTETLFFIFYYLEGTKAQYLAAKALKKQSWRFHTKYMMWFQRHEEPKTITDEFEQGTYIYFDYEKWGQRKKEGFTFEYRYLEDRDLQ
UniProt Q8N129: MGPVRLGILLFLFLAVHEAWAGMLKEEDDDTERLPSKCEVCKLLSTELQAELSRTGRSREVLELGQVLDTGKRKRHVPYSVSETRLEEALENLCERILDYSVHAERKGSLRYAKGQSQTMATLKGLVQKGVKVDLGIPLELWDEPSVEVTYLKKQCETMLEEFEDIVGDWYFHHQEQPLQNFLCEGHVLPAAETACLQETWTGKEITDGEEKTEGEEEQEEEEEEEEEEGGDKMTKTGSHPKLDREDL
UniProt P35606: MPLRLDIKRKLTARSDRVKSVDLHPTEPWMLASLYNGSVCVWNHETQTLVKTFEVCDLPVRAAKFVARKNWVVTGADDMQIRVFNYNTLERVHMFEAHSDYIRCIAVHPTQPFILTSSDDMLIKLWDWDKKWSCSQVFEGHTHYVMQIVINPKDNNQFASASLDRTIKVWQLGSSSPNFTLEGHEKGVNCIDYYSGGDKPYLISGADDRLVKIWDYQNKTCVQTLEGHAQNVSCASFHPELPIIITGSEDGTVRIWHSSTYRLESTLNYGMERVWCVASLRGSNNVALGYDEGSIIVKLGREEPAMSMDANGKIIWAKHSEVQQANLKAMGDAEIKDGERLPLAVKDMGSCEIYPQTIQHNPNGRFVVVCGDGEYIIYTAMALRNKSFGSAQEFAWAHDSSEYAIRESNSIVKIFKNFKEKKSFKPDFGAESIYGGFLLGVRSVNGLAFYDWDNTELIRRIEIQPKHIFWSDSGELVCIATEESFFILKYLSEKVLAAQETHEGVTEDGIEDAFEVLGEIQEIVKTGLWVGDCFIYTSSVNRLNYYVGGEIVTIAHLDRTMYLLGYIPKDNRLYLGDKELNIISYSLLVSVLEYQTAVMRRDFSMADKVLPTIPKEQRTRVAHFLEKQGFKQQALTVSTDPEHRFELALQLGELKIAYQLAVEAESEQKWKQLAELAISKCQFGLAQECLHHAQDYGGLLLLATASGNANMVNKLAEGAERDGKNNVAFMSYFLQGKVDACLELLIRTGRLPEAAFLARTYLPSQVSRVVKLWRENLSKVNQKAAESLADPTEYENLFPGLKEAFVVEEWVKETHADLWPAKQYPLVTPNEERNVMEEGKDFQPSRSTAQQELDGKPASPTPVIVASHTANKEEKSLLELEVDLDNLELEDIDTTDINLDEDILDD
UniProt Q9UP83: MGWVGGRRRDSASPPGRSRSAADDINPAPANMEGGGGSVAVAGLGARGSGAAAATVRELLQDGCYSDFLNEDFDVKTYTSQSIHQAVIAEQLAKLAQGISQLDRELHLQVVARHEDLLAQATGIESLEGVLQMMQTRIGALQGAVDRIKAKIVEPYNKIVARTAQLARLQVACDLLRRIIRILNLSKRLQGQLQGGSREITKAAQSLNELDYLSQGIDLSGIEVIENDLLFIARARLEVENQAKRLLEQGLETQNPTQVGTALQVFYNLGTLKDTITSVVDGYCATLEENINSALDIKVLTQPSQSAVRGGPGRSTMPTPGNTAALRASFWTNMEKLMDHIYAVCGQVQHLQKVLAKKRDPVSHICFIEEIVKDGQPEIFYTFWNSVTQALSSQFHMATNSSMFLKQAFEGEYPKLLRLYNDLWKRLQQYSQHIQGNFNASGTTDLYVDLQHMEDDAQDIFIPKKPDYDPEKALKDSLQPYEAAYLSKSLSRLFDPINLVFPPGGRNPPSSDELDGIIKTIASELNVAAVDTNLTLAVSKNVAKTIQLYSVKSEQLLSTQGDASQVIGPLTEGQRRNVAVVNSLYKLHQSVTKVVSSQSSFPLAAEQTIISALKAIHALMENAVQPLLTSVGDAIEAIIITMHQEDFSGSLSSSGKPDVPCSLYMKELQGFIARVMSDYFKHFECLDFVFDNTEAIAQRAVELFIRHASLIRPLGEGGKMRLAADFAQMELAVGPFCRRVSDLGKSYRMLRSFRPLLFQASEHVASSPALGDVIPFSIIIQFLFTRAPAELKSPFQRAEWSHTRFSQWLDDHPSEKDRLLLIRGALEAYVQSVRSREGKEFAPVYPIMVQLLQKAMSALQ
UniProt Q9P2I0: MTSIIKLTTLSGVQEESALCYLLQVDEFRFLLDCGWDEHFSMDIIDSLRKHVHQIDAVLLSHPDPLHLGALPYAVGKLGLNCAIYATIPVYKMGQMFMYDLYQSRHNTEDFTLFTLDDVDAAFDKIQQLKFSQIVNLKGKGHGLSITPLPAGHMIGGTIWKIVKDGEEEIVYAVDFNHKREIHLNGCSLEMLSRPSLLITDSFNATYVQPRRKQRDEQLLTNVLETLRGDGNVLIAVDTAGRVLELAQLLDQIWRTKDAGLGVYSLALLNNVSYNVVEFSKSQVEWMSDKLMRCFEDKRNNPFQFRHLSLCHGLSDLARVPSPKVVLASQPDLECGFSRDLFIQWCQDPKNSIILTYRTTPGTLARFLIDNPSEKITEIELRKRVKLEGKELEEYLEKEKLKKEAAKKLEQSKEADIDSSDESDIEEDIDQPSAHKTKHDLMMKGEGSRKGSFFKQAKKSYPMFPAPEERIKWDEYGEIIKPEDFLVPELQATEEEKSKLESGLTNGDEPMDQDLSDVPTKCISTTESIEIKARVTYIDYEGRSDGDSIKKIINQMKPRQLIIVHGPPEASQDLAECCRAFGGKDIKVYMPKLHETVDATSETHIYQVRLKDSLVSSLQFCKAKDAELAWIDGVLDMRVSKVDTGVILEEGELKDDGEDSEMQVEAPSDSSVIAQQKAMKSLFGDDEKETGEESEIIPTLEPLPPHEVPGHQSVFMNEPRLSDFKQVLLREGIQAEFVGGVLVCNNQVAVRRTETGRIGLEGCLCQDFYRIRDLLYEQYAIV
UniProt Q8N668, whole entry, looked up: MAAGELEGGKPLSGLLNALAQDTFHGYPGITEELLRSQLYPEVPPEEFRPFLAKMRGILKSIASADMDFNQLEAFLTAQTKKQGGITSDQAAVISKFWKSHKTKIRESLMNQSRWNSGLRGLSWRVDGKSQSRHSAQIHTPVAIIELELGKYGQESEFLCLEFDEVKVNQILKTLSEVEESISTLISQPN
UniProt P14854, whole entry, looked up: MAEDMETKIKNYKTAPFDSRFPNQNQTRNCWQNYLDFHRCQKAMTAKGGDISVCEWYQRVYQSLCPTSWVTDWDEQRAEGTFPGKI
UniProt P21964: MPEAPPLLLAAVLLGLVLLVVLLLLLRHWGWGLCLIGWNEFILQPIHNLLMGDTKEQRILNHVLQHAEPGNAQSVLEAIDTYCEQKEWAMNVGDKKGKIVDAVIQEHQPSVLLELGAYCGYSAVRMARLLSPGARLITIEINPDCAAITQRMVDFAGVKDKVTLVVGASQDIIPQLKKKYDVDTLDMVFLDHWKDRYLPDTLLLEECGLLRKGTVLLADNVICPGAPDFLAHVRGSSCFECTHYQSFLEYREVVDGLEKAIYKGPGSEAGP
UniProt Q7KZN9: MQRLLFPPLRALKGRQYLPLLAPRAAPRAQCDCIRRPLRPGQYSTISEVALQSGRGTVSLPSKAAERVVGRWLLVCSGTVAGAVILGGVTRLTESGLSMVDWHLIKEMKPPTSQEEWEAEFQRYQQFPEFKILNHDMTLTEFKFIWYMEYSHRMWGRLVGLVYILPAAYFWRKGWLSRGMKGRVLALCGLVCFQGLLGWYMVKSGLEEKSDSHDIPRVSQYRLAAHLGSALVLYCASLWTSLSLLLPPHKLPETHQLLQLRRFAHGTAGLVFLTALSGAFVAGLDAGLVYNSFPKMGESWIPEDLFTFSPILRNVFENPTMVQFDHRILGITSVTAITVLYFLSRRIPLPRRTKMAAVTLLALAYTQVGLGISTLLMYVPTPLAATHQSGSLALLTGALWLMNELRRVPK
UniProt P83436: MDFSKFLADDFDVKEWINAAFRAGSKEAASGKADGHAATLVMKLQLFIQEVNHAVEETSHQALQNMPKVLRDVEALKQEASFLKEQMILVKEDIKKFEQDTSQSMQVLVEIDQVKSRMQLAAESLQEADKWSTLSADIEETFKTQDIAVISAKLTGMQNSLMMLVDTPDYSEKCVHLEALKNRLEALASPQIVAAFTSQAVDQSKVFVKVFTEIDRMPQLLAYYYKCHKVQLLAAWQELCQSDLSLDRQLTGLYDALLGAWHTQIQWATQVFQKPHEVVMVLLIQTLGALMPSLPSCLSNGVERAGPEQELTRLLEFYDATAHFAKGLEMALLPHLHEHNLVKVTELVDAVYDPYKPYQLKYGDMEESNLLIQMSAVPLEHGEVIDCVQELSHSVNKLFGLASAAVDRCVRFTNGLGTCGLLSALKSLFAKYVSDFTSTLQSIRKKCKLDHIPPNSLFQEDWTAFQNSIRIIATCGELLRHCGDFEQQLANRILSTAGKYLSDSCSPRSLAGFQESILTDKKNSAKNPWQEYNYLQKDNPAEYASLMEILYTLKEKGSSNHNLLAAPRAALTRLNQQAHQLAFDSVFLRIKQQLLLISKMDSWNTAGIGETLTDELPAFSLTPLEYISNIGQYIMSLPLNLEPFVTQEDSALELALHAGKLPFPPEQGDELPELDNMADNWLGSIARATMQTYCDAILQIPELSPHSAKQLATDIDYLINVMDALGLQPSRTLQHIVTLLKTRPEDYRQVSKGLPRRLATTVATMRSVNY
UniProt Q96BR5: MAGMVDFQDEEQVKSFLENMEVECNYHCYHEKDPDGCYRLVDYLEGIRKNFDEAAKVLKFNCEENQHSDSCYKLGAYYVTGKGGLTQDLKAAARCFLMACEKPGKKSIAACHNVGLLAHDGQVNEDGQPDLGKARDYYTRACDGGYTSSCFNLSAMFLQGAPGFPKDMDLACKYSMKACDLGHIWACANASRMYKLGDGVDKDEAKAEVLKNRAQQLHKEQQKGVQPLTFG
UniProt Q9BR76, whole entry, looked up: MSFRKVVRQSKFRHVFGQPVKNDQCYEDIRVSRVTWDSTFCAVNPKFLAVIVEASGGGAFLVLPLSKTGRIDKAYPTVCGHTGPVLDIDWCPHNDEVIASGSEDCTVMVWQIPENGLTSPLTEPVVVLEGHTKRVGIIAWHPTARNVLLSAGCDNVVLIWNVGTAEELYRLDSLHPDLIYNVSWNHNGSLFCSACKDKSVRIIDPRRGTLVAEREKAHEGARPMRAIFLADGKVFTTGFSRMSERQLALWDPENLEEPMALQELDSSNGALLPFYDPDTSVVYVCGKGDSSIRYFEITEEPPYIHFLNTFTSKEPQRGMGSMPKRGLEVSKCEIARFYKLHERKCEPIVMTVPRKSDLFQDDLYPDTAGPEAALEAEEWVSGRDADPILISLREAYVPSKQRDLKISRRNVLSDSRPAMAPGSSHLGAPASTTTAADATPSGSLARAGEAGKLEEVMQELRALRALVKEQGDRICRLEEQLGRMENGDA
UniProt Q9Y6N1: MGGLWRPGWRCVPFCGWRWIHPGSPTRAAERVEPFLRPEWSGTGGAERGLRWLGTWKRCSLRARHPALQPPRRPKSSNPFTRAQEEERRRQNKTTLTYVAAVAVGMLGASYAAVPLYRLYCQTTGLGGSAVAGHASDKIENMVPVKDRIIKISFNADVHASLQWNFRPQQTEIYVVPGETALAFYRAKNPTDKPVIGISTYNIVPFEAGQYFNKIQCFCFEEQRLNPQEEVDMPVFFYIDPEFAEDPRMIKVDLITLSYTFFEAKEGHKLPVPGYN

How the values were obtained:
Test in all cases: log2 fold change, soluble protein after heating vs DMSO (PISA); higher = thermal stabilisation; K562 lysate, 10 uM; active = over 0.2 and 3.5 SD of the protein, either way, in both replicates (recomputed)
[1] = compound: CS(=O)(=O)CCNCc1ccc(-c2ccc3ncnc(Nc4ccc(OCc5cccc(F)c5)c(Cl)c4)c3c2)o1 [lapatinib]
How it was run: (§1)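 To prepare the extract, K562 pellets were dounce-homogenised in PBS pH 7.4 with 1 mM MgCl2, giving crude material at 1 mg/mL protein. This was treated with 10 μM compound for 30 min, then heated in aliquots for 3 min over 48°C-58°C before pooling and addition of NP-40 to 0.5% at 4°C. Centrifugation at 21,000xg for 90 min left soluble protein in the supernatant, which TMTpro 16plex LC-MS/MS quantified with equalised channel sums. Results are log-two fold changes in thermal stability compared with solvent controls, from duplicates.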

[2] = compound: CS(=O)(=O)N1CCN(Cc2cc3nc(-c4cccc5[nH]ncc45)nc(N4CCOCC4)c3s2)CC1 [pictilisib]
How it was run: as §1

[3] = compound: C[C@@H](Oc1cc(-c2cnn(C3CCNCC3)c2)cnc1N)c1c(Cl)ccc(F)c1Cl [crizotinib]
How it was run: as §1

[4] = compound: C[C@H](C1=CC=C(C=C1)C(=O)NC2=C3C=CNC3=NC=C2)N
How it was run: as §1

[5] = compound: C[C@H](Nc1ncnc2nc[nH]c12)c1cc2cccc(Cl)c2c(=O)n1-c1ccccc1 [duvelisib]
How it was run: as §1

[6] = compound: Cc1cc(Nc2cc(CN3CCOCC3)c3nc(C)c(Cc4ccc(Cl)cc4F)n3n2)n[nH]1 [gandotinib]
How it was run: as §1

[7] = compound: Cc1cc(Nc2cc(N3CCN(C)CC3)nc(Sc3ccc(NC(=O)C4CC4)cc3)n2)n[nH]1 [tozasertib]
How it was run: as §1

[8] = compound: Cc1ccc(-n2nc(C(C)(C)C)cc2NC(=O)Nc2ccc(OCCN3CCOCC3)c3ccccc23)cc1 [doramapimod]
How it was run: as §1

[9] = compound: Cc1ccc(NC(=O)c2ccc(CN3CC[C@H](N(C)C)C3)c(C(F)(F)F)c2)cc1Nc1nccc(-c2cncnc2)n1 [bafetinib]
How it was run: as §1

[10] = compound: Cc1cccc(CC(=O)N2CCc3c2ccc(-c2cn(C)c4ncnc(N)c24)c3F)n1
How it was run: as §1

[11] = compound: Cc1cn(-c2cc(NC(=O)c3ccc(C)c(Nc4nccc(-c5cccnc5)n4)c3)cc(C(F)(F)F)c2)cn1 [nilotinib]
How it was run: as §1

[12] = compound: Cc1nc(Nc2n[nH]c3c2CN(C(=O)N[C@H](CN(C)C)c2ccccc2)C3(C)C)c2sccc2n1
How it was run: as §1

[13] = compound: Cc1nc(Nc2ncc(C(=O)Nc3c(C)cccc3Cl)s2)cc(N2CCN(CCO)CC2)n1 [dasatinib]
How it was run: as §1

[14] = compound: Cc1ncc(-c2ccnc(Nc3ccc(S(C)(=O)=O)cc3)n2)n1C(C)C
How it was run: as §1

[15] = compound: Cn1cc(-c2ccc3c(c2)CCN3C(=O)Cc2cccc(C(F)(F)F)c2)c2c(N)ncnc21
How it was run: as §1

[16] = compound: Cn1cc(CNCC2CCN(c3ncc(C(=O)NO)cn3)CC2)c2ccccc21 [quisinostat]
How it was run: as §1

[17] = compound: Cn1cncc1[C@@](N)(c1ccc(Cl)cc1)c1ccc2c(c1)c(-c1cccc(Cl)c1)cc(=O)n2C [tipifarnib]
How it was run: as §1

[18] = compound: NC(=O)Nc1cc(-c2cccc(F)c2)sc1C(=O)N[C@H]1CCCNC1
How it was run: as §1

[19] = compound: NC(=O)c1cnc(N[C@@H]2CCCC[C@@H]2N)nc1Nc1cccc(-n2nccn2)c1
How it was run: as §1

[20] = compound: NC1(c2ccc(-c3nc4ccn5c(=O)[nH]nc5c4cc3-c3ccccc3)cc2)CCC1
How it was run: as §1

Measured: log2 fold change

CNOT3 (UniProt O75175)
inactive: [1] -0.008 | [2] 0.004 | [3] 0.1 | [4] -0.046 | [5] 0.028 | [6] -0.029 | [7] -0.038 | [8] -0.035 | [9] -0.009 | [10] 0.048 | [11] 0.011 | [12] -0.02 | [13] -0.006 | [14] 0.024 | [15] 0.013 | [16] 0.188 | [17] -0.037 | [18] 0.01 | [19] 0.016 | [20] -0.004

CNPY4 (UniProt Q8N129)
inactive: [1] 0.035 | [2] 0.021 | [3] -0.15 | [4] -0.151 | [5] -0.119 | [6] 0.085 | [7] 0.022 | [8] -0.045 | [9] 0.03 | [10] 0.159 | [11] 0.143 | [12] 0.123 | [13] 0.144 | [14] -0.131 | [15] 0 | [16] 0.092 | [17] 0 | [18] 0 | [19] -0.077 | [20] 0.038

COPB2 (UniProt P35606)
inactive: [1] -0.013 | [2] -0.011 | [3] -0.015 | [4] -0.065 | [5] 0.02 | [6] 0.024 | [7] 0.002 | [8] 0.012 | [9] -0.039 | [10] 0.028 | [11] 0 | [12] -0.004 | [13] -0.008 | [14] 0.009 | [15] -0.008 | [16] -0.018 | [17] -0.004 | [18] 0.001 | [19] -0.008 | [20] -0.033

COG5 isoform 2 (UniProt Q9UP83)
inactive: [1] -0.059 | [2] -0.03 | [3] -0.025 | [4] 0.027 | [5] 0.007 | [6] -0.071 | [7] 0.013 | [8] -0.024 | [9] -0.034 | [10] 0.062 | [11] -0.023 | [12] 0.057 | [13] -0.153 | [14] -0.003 | [15] 0.037 | [16] -0.031 | [17] -0.019 | [18] 0.043 | [19] -0.081 | [20] -0.12

COLGALT1 (UniProt Q8NBJ5)
inactive: [1] -0.023 | [2] -0.04 | [3] -0.012 | [4] -0.023 | [5] -0.016 | [6] 0.02 | [7] 0.026 | [8] 0.006 | [9] 0.002 | [10] 0.049 | [11] 0.005 | [12] -0.003 | [13] -0.021 | [14] -0.021 | [15] -0.007 | [16] -0.002 | [17] -0.011 | [18] -0.007 | [19] 0.006 | [20] -0.02

CPSF2 (UniProt Q9P2I0)
inactive: [1] -0.008 | [2] -0.009 | [3] -0.011 | [4] 0.028 | [5] 0.009 | [6] -0.03 | [7] 0.001 | [8] -0.005 | [9] -0.121 | [10] 0.029 | [11] -0.032 | [12] 0.035 | [13] -0.02 | [14] 0.016 | [15] 0.023 | [16] 0 | [17] -0.016 | [18] 0.032 | [19] 0.015 | [20] -0.022

COMMD1 (UniProt Q8N668)
inactive: [1] -0.04 | [2] -0.005 | [3] -0.01 | [4] 0.015 | [5] -0.005 | [6] -0.075 | [7] 0.06 | [8] 0.029 | [9] 0.043 | [10] 0.035 | [11] 0.042 | [12] -0.016 | [13] -0.057 | [14] 0.038 | [15] 0.023 | [16] -0.018 | [17] 0.093 | [18] 0.012 | [19] 0.009 | [20] -0.039

COG1 (UniProt Q8WTW3)
inactive: [1] 0.005 | [2] -0.003 | [3] -0.079 | [4] -0.033 | [5] 0.013 | [6] -0.183 | [7] 0.012 | [8] 0.033 | [9] -0.064 | [10] 0.013 | [11] -0.032 | [12] 0.011 | [13] -0.106 | [14] -0.006 | [15] 0.025 | [16] -0.036 | [17] 0.002 | [18] 0.052 | [19] 0.01 | [20] 0.071

COX6B1 (UniProt P14854)
inactive: [1] 0.058 | [2] -0.024 | [3] -0.002 | [4] 0.187 | [5] -0.006 | [6] -0.121 | [7] 0.05 | [8] 0.048 | [9] 0.06 | [10] -0.045 | [11] 0.04 | [12] 0.007 | [13] 0.105 | [14] 0.029 | [15] 0.003 | [16] -0.017 | [17] 0.031 | [18] -0.084 | [19] -0.031 | [20] 0.075

COMT (UniProt P21964)
inactive: [1] -0.006 | [2] -0.007 | [3] 0.019 | [4] -0.052 | [5] -0.015 | [6] -0.008 | [7] -0.008 | [8] 0.038 | [9] 0.012 | [10] 0.01 | [11] -0.007 | [12] -0.029 | [13] -0.02 | [14] -0.018 | [15] 0.02 | [16] -0.08 | [17] 0.013 | [18] 0.028 | [19] 0.005 | [20] 0.009

CNOT11 (UniProt Q9UKZ1)
inactive: [1] 0.011 | [2] 0.042 | [3] -0.063 | [4] -0.039 | [5] 0.016 | [6] -0.045 | [7] -0.012 | [8] -0.013 | [9] -0.019 | [10] 0.086 | [11] -0.04 | [12] -0.033 | [13] -0.052 | [14] -0.017 | [15] 0.005 | [16] -0.095 | [17] 0.026 | [18] 0.056 | [19] 0.017 | [20] -0.008

COX15 (UniProt Q7KZN9)
inactive: [1] 0.063 | [2] -0.002 | [3] -0.087 | [4] -0.194 | [5] 0.005 | [6] 0.074 | [7] -0.014 | [8] -0.024 | [9] -0.031 | [10] 0.05 | [11] 0.028 | [12] -0.032 | [13] -0.006 | [14] 0.011 | [15] 0 | [16] -0.052 | [17] -0.025 | [18] 0.003 | [19] -0.028 | [20] -0.034

COG7 (UniProt P83436)
inactive: [1] -0.014 | [2] -0.008 | [3] -0.025 | [4] -0.068 | [5] -0.01 | [6] -0.059 | [7] -0.028 | [8] 0.028 | [9] -0.044 | [10] 0.058 | [11] 0.02 | [12] 0.007 | [13] -0.089 | [14] 0.011 | [15] 0.024 | [16] 0 | [17] -0.001 | [18] 0.033 | [19] -0.019 | [20] 0.001

COA7 (UniProt Q96BR5)
inactive: [1] 0.065 | [2] -0.037 | [3] 0.082 | [4] -0.087 | [5] 0.028 | [6] 0.053 | [7] 0.021 | [8] -0.041 | [9] 0.01 | [10] 0.013 | [11] -0.042 | [12] 0.005 | [13] 0.001 | [14] 0.003 | [15] 0.035 | [16] 0.095 | [17] -0.001 | [18] -0.025 | [19] -0.008 | [20] 0.041

2 records drawn at random from those above:
COX15 (UniProt Q7KZN9)
inactive: [1] 0.063 | [2] -0.002 | [3] -0.087 | [4] -0.194 | [5] 0.005 | [6] 0.074 | [7] -0.014 | [8] -0.024 | [9] -0.031 | [10] 0.05 | [11] 0.028 | [12] -0.032 | [13] -0.006 | [14] 0.011 | [15] 0 | [16] -0.052 | [17] -0.025 | [18] 0.003 | [19] -0.028 | [20] -0.034

COA7 (UniProt Q96BR5)
inactive: [1] 0.065 | [2] -0.037 | [3] 0.082 | [4] -0.087 | [5] 0.028 | [6] 0.053 | [7] 0.021 | [8] -0.041 | [9] 0.01 | [10] 0.013 | [11] -0.042 | [12] 0.005 | [13] 0.001 | [14] 0.003 | [15] 0.035 | [16] 0.095 | [17] -0.001 | [18] -0.025 | [19] -0.008 | [20] 0.041

Next entries

CORO1B (UniProt Q9BR76)
inactive: [1] -0.012 | [2] -0.013 | [3] -0.005 | [4] -0.041 | [5] 0.012 | [6] -0.002 | [7] 0 | [8] 0.024 | [9] -0.021 | [10] 0.02 | [11] 0.001 | [12] -0.026 | [13] 0.002 | [14] -0.015 | [15] -0.007 | [16] 0.01 | [17] 0.012 | [18] -0.001 | [19] 0.008 | [20] -0.014

COX11 (UniProt Q9Y6N1)
inactive: [1] 0.042 | [2] -0.023 | [3] 0.021 | [4] -0.007 | [5] -0.031 | [6] -0.026 | [7] -0.053 | [8] -0.065 | [9] 0.03 | [10] -0.043 | [11] 0.128 | [12] -0.061 | [13] 0.025 | [14] -0.046 | [15] -0.025 | [16] 0.009 | [17] -0.129 | [18] 0.002 | [19] -0.024 | [20] 0.005
